Sequences of proteins named here, by UniProt entry; tags and fusion partners are left off.
UniProt P10721, whole entry D816V: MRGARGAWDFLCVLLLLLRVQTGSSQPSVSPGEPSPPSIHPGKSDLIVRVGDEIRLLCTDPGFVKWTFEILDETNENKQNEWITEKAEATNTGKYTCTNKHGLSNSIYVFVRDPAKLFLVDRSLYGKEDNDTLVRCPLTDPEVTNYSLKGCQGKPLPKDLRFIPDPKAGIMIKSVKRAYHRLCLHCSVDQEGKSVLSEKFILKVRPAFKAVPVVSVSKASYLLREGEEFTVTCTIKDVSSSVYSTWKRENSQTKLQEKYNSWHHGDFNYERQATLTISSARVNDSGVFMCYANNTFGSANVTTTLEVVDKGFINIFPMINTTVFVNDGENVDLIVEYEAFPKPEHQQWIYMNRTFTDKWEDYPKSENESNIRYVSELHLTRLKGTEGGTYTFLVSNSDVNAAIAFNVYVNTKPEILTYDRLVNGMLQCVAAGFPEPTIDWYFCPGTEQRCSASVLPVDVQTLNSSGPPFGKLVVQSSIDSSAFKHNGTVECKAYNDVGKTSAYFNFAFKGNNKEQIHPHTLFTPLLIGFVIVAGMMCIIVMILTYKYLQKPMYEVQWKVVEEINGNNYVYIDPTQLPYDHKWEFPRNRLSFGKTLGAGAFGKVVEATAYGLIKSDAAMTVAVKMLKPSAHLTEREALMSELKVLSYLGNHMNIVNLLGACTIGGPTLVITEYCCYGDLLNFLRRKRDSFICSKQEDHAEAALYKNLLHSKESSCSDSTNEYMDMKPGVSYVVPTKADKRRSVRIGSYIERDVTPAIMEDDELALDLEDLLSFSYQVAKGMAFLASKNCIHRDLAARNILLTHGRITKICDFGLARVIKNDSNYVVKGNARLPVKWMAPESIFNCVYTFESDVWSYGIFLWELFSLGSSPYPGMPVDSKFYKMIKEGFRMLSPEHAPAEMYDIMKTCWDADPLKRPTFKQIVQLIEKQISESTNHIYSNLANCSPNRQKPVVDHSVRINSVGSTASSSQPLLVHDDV

Some entries share one result that the patent states for a list of compounds.
What follows are molecules tested against BaF3-FL KIT D816V cells (Homo sapiens, UniProt P10721, D816V, cells depend on it, form not given) (assay: Cell-based assay of c-Kit mutant kinase activity, BaF3-FL KIT D816V cell proliferation (ATPlite)). Conditions: in at least one of the c-kit cell assays described in Example 28 (BaF3-FL KIT D816V or BaF3-FL KIT V560G/D816V); read-out: IC50 (the source's name).
For `COc1cc(-c2cc3c(N4CCN(C(=O)Nc5ccc(OC(F)(F)F)cc5)CC4)ncnc3[nH]2)ccn1` [P-0117, 4-[6-(2-methoxy-4-pyridyl)-7H-pyrrolo[2,3-d]pyrimidin-4-yl]-N-[4-(trifluoromethoxy)phenyl]piperazine-1-carboxamide], the GI50 was under 10 µM.
For `CS(=O)(=O)Nc1cccc(-c2cc3c(N4CCN(C(=O)Nc5ccc(OC(F)(F)F)cc5)CC4)ncnc3[nH]2)c1` [P-0119, 4-[6-[3-(methanesulfonamido)phenyl]-7H-pyrrolo[2,3-d]pyrimidin-4-yl]-N-[4-(trifluoromethoxy)phenyl]piperazine-1-carboxamide], the GI50 was under 10 µM.
`CC(=O)Nc1cccc(-c2cc3c(N4CCN(C(=O)Nc5ccc(OC(F)(F)F)cc5)CC4)ncnc3[nH]2)c1` [P-0120, 4-[6-(3-acetamidophenyl)-7H-pyrrolo[2,3-d]pyrimidin-4-yl]-N-[4-(trifluoromethoxy)phenyl]piperazine-1-carboxamide] gave a GI50 of under 10 µM.
For `N#Cc1cccc(-c2cc3c(N4CCN(C(=O)Nc5ccc(OC(F)(F)F)cc5)CC4)ncnc3[nH]2)c1` [P-0121, 4-[6-(3-cyanophenyl)-7H-pyrrolo[2,3-d]pyrimidin-4-yl]-N-[4-(trifluoromethoxy)phenyl]piperazine-1-carboxamide], the GI50 was under 10 µM.
For `COc1cccc(CNC(=O)N2CCN(c3ncnc4[nH]c(-c5ccc(F)cc5)cc34)CC2)n1` [P-0122, 4-[6-(4-fluorophenyl)-7H-pyrrolo[2,3-d]pyrimidin-4-yl]-N-[(6-methoxy-2-pyridyl)methyl]piperazine-1-carboxamide], the GI50 was under 10 µM.
Molecule `O=C(NCc1ccc(Cl)cn1)N1CCN(c2ncnc3[nH]c(-c4cccnc4)cc23)CC1` [P-0123, N-[(5-chloro-2-pyridyl)methyl]-4-[6-(3-pyridyl)-7H-pyrrolo[2,3-d]pyrimidin-4-yl]piperazine-1-carboxamide] has a GI50 of under 10 µM.
In the case of `O=C(Nc1ccc(OC(F)F)cc1)N1CCN(c2ncnc3[nH]c(-c4ccc(F)cc4)cc23)CC1` [P-0125, N-[4-(difluoromethoxy)phenyl]-4-[6-(4-fluorophenyl)-7H-pyrrolo[2,3-d]pyrimidin-4-yl]piperazine-1-carboxamide], the GI50 is reported as under 10 µM.
Molecule `C[C@H](NC(=O)N1CCN(c2ncnc3[nH]c(-c4ccc(F)cc4)cc23)CC1)c1ccc(F)cc1` [P-0126, N-[(1S)-1-(4-fluorophenyl)ethyl]-4-[6-(4-fluorophenyl)-7H-pyrrolo[2,3-d]pyrimidin-4-yl]piperazine-1-carboxamide] has a GI50 of under 10 µM.
For `COc1cccc(CNC(=O)N2CCN(c3ncnc4[nH]c(-c5cccnc5)cc34)CC2)n1` [P-0128, N-[(6-methoxy-2-pyridyl)methyl]-4-[6-(3-pyridyl)-7H-pyrrolo[2,3-d]pyrimidin-4-yl]piperazine-1-carboxamide], the GI50 was under 10 µM.
`COc1ccc(CNC(=O)N2CCN(c3ncnc4[nH]c(-c5ccc(F)cc5)cc34)CC2)cn1` [P-0129, 4-[6-(4-fluorophenyl)-7H-pyrrolo[2,3-d]pyrimidin-4-yl]-N-[(6-methoxy-3-pyridyl)methyl]piperazine-1-carboxamide] was tested, and the GI50 was under 10 µM.
`NC(=O)N1CCN(c2ncnc3[nH]c(-c4cccnc4)cc23)CC1` [P-0130, 4-[6-(3-pyridyl)-7H-pyrrolo[2,3-d]pyrimidin-4-yl]piperazine-1-carboxamide] showed a GI50 of under 10 µM.
With `O=C(NCc1cncc(F)c1)N1CCN(c2ncnc3[nH]c(-c4ccc(F)cc4)cc23)CC1` [P-0131, 4-[6-(4-fluorophenyl)-7H-pyrrolo[2,3-d]pyrimidin-4-yl]-N-[(5-fluoro-3-pyridyl)methyl]piperazine-1-carboxamide] the GI50 was under 10 µM.
`O=C(Nc1ccc(OC(F)(F)F)cc1)N1CCN(c2ncnc3[nH]c(-c4ccc(Cl)cc4)cc23)CC1` [P-0134, 4-[6-(4-chlorophenyl)-7H-pyrrolo[2,3-d]pyrimidin-4-yl]-N-[4-(trifluoromethoxy)phenyl]piperazine-1-carboxamide] was tested, and the GI50 was under 10 µM.
Molecule `O=C(NC1CCC(F)(F)CC1)N1CCN(c2ncnc3[nH]c(-c4ccc(F)cc4)cc23)CC1` [P-0135, N-(4,4-difluorocyclohexyl)-4-[6-(4-fluorophenyl)-7H-pyrrolo[2,3-d]pyrimidin-4-yl]piperazine-1-carboxamide] has a GI50 of under 10 µM.
For `C[C@@H](NC(=O)N1CCN(c2ncnc3[nH]c(-c4ccc(Cl)cc4)cc23)CC1)c1ccc(Cl)cc1` [P-0136, N-[(1R)-1-(4-chlorophenyl)ethyl]-4-[6-(4-chlorophenyl)-7H-pyrrolo[2,3-d]pyrimidin-4-yl]piperazine-1-carboxamide], the GI50 was under 10 µM.
`O=C(NCc1ccc(F)cc1)N1CCN(c2ncnc3[nH]cc(CC4CC4)c23)CC1` [P-0137, 4-[5-(cyclopropylmethyl)-7H-pyrrolo[2,3-d]pyrimidin-4-yl]-N-[(4-fluorophenyl)methyl]piperazine-1-carboxamide] was tested, and the GI50 was under 10 µM.
Molecule `O=C(NCc1ccc(Cl)cc1)N1CCN(c2ncnc3[nH]c(C4CC4)cc23)CC1` [P-0138, N-[(4-chlorophenyl)methyl]-4-(6-cyclopropyl-7H-pyrrolo[2,3-d]pyrimidin-4-yl)piperazine-1-carboxamide] has a GI50 of under 10 µM.
`O=C(NCc1ccc(Cl)cc1)N1CCN(c2ncnc3[nH]c(Cl)cc23)CC1` [P-0139, N-[(4-chlorophenyl)methyl]-4-(6-chloro-7H-pyrrolo[2,3-d]pyrimidin-4-yl)piperazine-1-carboxamide] showed a GI50 of under 10 µM.
`COc1ncc(F)cc1CNC(=O)N1CCN(c2ncnc3[nH]c(-c4cccnc4)cc23)CC1` [P-0140, N-[(5-fluoro-2-methoxy-3-pyridyl)methyl]-4-[6-(3-pyridyl)-7H-pyrrolo[2,3-d]pyrimidin-4-yl]piperazine-1-carboxamide] was tested, and the GI50 was under 10 µM.
For `O=C(c1c[nH]c2ncnc(N3CCN(C(=O)NCc4ccc(F)cc4)CC3)c12)C1CC1` [P-0141, 4-[5-(cyclopropanecarbonyl)-7H-pyrrolo[2,3-d]pyrimidin-4-yl]-N-[(4-fluorophenyl)methyl]piperazine-1-carboxamide], the GI50 was under 10 µM.
In the case of `Cc1ccc(NS(=O)(=O)N2CCN(c3ncnc4[nH]c(-c5ccc(Cl)cc5)cc34)CC2)cc1` [P-0142, 4-[6-(4-chlorophenyl)-7H-pyrrolo[2,3-d]pyrimidin-4-yl]-N-(p-tolyl)piperazine-1-sulfonamide], the GI50 is reported as under 10 µM.
In the case of `O=C(NC(=O)N1CCN(c2ncnc3[nH]c(-c4ccc(F)cc4)cc23)CC1)c1ccccc1` [P-0143, N-benzoyl-4-[6-(4-fluorophenyl)-7H-pyrrolo[2,3-d]pyrimidin-4-yl]piperazine-1-carboxamide], the GI50 is reported as under 10 µM.
`COc1cccc([C@H](C)NC(=O)N2CCN(c3ncnc4[nH]c(-c5ccc(F)cc5)cc34)CC2)c1` [P-0144, 4-[6-(4-fluorophenyl)-7H-pyrrolo[2,3-d]pyrimidin-4-yl]-N-[(1S)-1-(3-methoxyphenyl)ethyl]piperazine-1-carboxamide] was tested, and the GI50 was under 10 µM.
`COc1ccc([C@@H](C)NC(=O)N2CCN(c3ncnc4[nH]c(-c5ccc(F)cc5)cc34)CC2)cc1` [P-0145] showed a GI50 of under 10 µM.
With `C[C@@H](NC(=O)N1CCN(c2ncnc3[nH]c(-c4ccc(F)cc4)cc23)CC1)c1ccc(F)cc1` [P-0146, N-[(1R)-1-(4-fluorophenyl)ethyl]-4-[6-(4-fluorophenyl)-7H-pyrrolo[2,3-d]pyrimidin-4-yl]piperazine-1-carboxamide] the GI50 was under 10 µM.
With `C[C@@H](NC(=O)N1CCN(c2ncnc3[nH]c(-c4ccc(F)cc4)cc23)CC1)c1ccc(F)cc1` [P-0147, N-[(1R)-1-(4-fluorophenyl)ethyl]-4-[6-(4-fluorophenyl)-7H-pyrrolo[2,3-d]pyrimidin-4-yl]piperazine-1-carboxamide] the GI50 was under 10 µM.
`O=C(NC1CCCC1)N1CCN(c2ncnc3[nH]c(-c4ccc(F)cc4)cc23)CC1` [P-0148, N-cyclopentyl-4-[6-(4-fluorophenyl)-7H-pyrrolo[2,3-d]pyrimidin-4-yl]piperazine-1-carboxamide] gave a GI50 of under 10 µM.
With `COc1cccc([C@@H](C)NC(=O)N2CCN(c3ncnc4[nH]c(-c5ccc(F)cc5)cc34)CC2)c1` [P-0149, 4-[6-(4-fluorophenyl)-7H-pyrrolo[2,3-d]pyrimidin-4-yl]-N-[(1R)-1-(3-methoxyphenyl)ethyl]piperazine-1-carboxamide] the GI50 was under 10 µM.
Work on `N#Cc1cc2c(N3CCN(C(=O)NCc4ccc(F)cc4)CC3)ncnc2[nH]1` [P-0150, 4-(6-cyano-7H-pyrrolo[2,3-d]pyrimidin-4-yl)-N-[(4-fluorophenyl)rnethyl]piperazine-1-carboxamide] yielded a GI50 of under 10 µM.
Molecule `O=C(NCc1ccccc1Cl)N1CCN(c2ncnc3[nH]c(-c4ccc(F)cc4)cc23)CC1` [P-0154, N-[(2-chlorophenyl)methyl]-4-[6-(4-fluorophenyl)-7H-pyrrolo[2,3-d]pyrimidin-4-yl]piperazine-1-carboxamide] has a GI50 of under 10 µM.
`COc1ccc(CNC(=O)N2CCN(c3ncnc4[nH]c(-c5ccc(F)cc5)cc34)CC2)cc1` [P-0157, 4-[6-(4-fluorophenyl)-7H-pyrrolo[2,3-d]pyrimidin-4-yl]-N-[(4-methoxyphenyl)methyl]piperazine-1-carboxamide] showed a GI50 of under 10 µM.
Work on `N#Cc1c[nH]c2ncnc(N3CCN(C(=O)NCc4ccc(F)cc4)CC3)c12` [P-0158, 4-(5-cyano-7H-pyrrolo[2,3-d]pyrimidin-4-yl)-N-[(4-fluorophenyl)methyl]piperazine-1-carboxamide] yielded a GI50 of under 10 µM.
With `Cc1ccccc1C(=O)c1c[nH]c2ncnc(N3CCN(C(=O)NCc4ccc(F)cc4)CC3)c12` [P-0160, N-[(4-fluorophenyl)methyl]-4-[5-(2-methylbenzoyl)-7H-pyrrolo[2,3-d]pyrimidin-4-yl]piperazine-1-carboxamide] the GI50 was under 10 µM.
Work on `O=C(NCCc1ccc(Cl)cc1)N1CCN(c2ncnc3[nH]c(-c4ccc(F)cc4)cc23)CC1` [P-0161, N-[2-(4-chlorophenyl)ethyl]-4-[6-(4-fluorophenyl)-7H-pyrrolo[2,3-d]pyrimidin-4-yl]piperazine-1-carboxamide] yielded a GI50 of under 10 µM.
`O=C(NCc1cccc(F)c1)N1CCN(c2ncnc3[nH]ccc23)CC1` [P-0163, N-[(3-fluorophenyl)methyl]-4-(7H-pyrrolo[2,3-d]pyrimidin-4-yl)piperazine-1-carboxamide] gave a GI50 of under 10 µM.

Source: patent publication US10227357B2, “Compounds and methods for kinase modulation, and indications therefor” (Plexxikon Inc., priority 2012, dated 2019)
